In publication doi:10.1101/2024.10.03.616587 one finds binding data, which are given here for two molecules.

Sequences of proteins named here, by UniProt entry; tags and fusion partners are left off. Residues count along the entry.
UniProt P22460: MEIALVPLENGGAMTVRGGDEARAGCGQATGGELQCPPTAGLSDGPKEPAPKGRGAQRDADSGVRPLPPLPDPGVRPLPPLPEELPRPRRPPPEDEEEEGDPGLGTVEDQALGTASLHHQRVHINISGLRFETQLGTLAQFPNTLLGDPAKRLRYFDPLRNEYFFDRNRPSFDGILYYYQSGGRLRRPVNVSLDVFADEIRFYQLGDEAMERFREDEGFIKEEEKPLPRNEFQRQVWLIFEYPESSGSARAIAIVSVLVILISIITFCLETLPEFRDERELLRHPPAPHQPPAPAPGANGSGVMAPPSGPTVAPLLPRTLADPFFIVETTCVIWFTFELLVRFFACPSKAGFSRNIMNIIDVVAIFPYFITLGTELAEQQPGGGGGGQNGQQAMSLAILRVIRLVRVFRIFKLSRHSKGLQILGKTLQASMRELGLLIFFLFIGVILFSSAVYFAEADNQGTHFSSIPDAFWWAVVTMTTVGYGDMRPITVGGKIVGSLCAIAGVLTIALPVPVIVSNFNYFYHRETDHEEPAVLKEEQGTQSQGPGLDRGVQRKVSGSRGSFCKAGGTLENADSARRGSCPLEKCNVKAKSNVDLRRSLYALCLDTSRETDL
UniProt Q8N135, residues 20-537: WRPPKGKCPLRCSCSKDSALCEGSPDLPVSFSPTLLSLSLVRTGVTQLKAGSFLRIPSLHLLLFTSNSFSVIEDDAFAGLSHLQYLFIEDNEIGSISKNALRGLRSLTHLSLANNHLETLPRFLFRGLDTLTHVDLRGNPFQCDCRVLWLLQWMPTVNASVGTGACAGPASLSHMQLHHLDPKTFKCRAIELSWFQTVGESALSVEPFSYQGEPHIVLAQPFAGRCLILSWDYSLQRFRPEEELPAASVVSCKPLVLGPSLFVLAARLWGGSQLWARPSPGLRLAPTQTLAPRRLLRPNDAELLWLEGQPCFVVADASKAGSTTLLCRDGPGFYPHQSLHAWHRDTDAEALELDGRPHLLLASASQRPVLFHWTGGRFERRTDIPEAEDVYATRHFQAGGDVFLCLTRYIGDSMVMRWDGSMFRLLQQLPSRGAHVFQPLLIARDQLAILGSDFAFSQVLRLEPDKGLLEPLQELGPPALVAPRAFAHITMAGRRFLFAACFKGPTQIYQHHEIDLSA

The experiment concerns the target KV1.5 channel (UniProt P22460). In words: co-IP.

Results are given in words; binding and its absence hold for the method and conditions named. Binding seen in cells or lysates may run through a third protein. Some entries that bind do so weakly or less than the wild type. Sequences can lack the tags named with a protein.

As for “Lgi4, FLAG-tagged (from UniProt Q8N135-1 20-537)”, the binding result was “binds”.

B1: Lgi3, FLAG-tagged (protein, UniProt Q8N145 31-548)
chain: KRPPKTPPCPPSCSCTRDTAFCVDSKAVPRNLPSEVISLTLVNAAFSEIQDGAFSHLPLLQFLLLNSNKFTLIGDNAFTGLSHLQYLFIENNDIWALSKFTFRGLKSLTHLSLANNNLQTLPRDIFRPLDILNDLDLRGNSLNCDCKVKWLVEWLAHTNTTVAPIYCASPPRFQEHKVQDLPLREFDCITTDFVLYQTLAFPAVSAEPFLYSSDLYLALAQPGVSACTILKWDYVERQLRDYDRIPAPSAVHCKPMVVDSQLYVVVAQLFGGSYIYHWDPNTTRFTRLQDIDPQRVRKPNDLEAFRIDGDWYFAVADSSKAGATSLYRWHQNGFYSHQALHPWHRDTDLEFVDGEGKPRLIVSSSSQAPVIYQWSRTQKQFVAQGEVTQVPDAQAVKHFRAGRDSYLCLSRYIGDSKILRWEGTRFSEVQALPSRGSLALQPFLVGGRRYLALGSDFSFTQIYQWDEGRQKFVRFQELAVQAPRAFCYMPAGDAQLLLAPSFKGQTLVYRHIVVDLSA
Consider B1, for which the binding entry is listed as “binds”.
